Data from patent US20220175977A1 (SORICIMED BIOPHARMA, published 2022).
No constants are given. Whether binding was seen depends on the method and setting. Some binding calls cover weakened binding; strength is not graded here.

The chains behind the UniProt entries cited, without tags or fusion partners.
UniProt Q9H1D0: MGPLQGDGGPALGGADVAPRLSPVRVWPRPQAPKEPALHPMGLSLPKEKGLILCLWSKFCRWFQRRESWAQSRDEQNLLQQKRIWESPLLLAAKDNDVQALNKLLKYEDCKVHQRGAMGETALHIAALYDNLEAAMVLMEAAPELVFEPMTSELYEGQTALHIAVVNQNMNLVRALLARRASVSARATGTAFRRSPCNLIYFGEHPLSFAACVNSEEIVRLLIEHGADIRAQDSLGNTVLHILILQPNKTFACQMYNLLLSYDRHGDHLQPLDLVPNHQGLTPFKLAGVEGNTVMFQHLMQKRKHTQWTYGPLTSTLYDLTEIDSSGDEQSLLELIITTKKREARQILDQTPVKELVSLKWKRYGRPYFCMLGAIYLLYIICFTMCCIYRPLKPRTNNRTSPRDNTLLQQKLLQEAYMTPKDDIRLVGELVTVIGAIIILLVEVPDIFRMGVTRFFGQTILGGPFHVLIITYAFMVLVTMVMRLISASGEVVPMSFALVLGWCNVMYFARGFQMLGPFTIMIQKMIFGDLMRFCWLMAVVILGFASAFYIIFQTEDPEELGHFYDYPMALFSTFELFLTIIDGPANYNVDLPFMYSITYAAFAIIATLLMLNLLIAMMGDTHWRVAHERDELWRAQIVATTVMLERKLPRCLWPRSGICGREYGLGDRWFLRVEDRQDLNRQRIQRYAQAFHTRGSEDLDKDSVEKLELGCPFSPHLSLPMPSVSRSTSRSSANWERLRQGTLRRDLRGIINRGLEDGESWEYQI

Assays:
[1] = molecular target: TRPV6 expressed from a transfected TRPV6 expression vector (UniProt Q9H1D0); assay: fluorescence microscopy, transfected HEK-293 cells (FIG. 6)
[2] = molecular target: TRPV6 expressed from a transfected TRPV6 expression vector (UniProt Q9H1D0); assay: fluorescence microscopy, transfected HEK293 cells
[3] = molecular target: TRPV6 expressed from a transfected TRPV6 expression vector (UniProt Q9H1D0); assay: fluorescence microscopy, HEK-293 cells transfected with TRPV6 expression vector

Measured: binding

EGKLSSNDTEGGLCKEFLHPSKVDLPR (Cy5.5 at the single cysteine thiol (maleimide-activated reaction)) [SorC27-cy5.5]
binds: all assays above
